The list shows a part of the results. Repeats are few or missing, and single values can be far off.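 The apoptosis fraction was the count of cleaved-PARP antibody-stained nuclei relative to all DNA-stained nuclei, imaged in 1,536-well plates. Screening doses were set so most cells survived, and baseline and induced cleaved-PARP levels vary greatly across cell lines.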
Experiments:
Test in all cases: cleaved PARP positive nuclei fraction relative to DMSO control; melanoma cells; higher = more apoptosis
Conditions in all cases: library dose: low library concentration; 72 h
501Mel = system: 501Mel
A101D = system: A101D
A2058 = system: A2058
A375 = system: A375
C32 = system: C32
CBRC008 = system: CBRC008 (line from a melanoma biopsy)
CBRC013 = system: CBRC013 (line from a melanoma biopsy)
CBRC014 = system: CBRC014 (line from a melanoma biopsy)
CBRC016 = system: CBRC016 (line from a melanoma biopsy)
CBRC017 = system: CBRC017 (line from a melanoma biopsy)

Row | SMILES | cleaved PARP positive nuclei fraction (501Mel) [%] | cleaved PARP positive nuclei fraction (A101D) [%] | cleaved PARP positive nuclei fraction (A2058) [%] | cleaved PARP positive nuclei fraction (A375) [%] | cleaved PARP positive nuclei fraction (C32) [%] | cleaved PARP positive nuclei fraction (CBRC008) [%] | cleaved PARP positive nuclei fraction (CBRC013) [%] | cleaved PARP positive nuclei fraction (CBRC014) [%] | cleaved PARP positive nuclei fraction (CBRC016) [%] | cleaved PARP positive nuclei fraction (CBRC017) [%]
1 | O=c1[nH]nc(Sc2ncc([N+](=O)[O-])s2)n1-c1ccc2c(c1)OCCO2 + CC1(C)NC(=O)N(c2ccc([N+](=O)[O-])c(C(F)(F)F)c2)C1=O [nilutamide] (first compound 0.2 µM, partner dose 1 µM) | 66.4 | 103 | 92.7 | 52.3 | 114 | 56.5 | 137 | 94.4 | 68.5 | 119
2 | Cc1ccc(Nc2nccc(N(C)c3ccc4c(C)n(C)nc4c3)n2)cc1S(N)(=O)=O [Pazopanib] + Cc1ccc(NC(=O)c2cccc(N(C)C)c2)cc1NC(=O)c1ccc(O)cc1 [ZM336372] (first compound 0.4 µM, partner dose 2 µM) | 416 | 41.8 | 94.2 | 143 | 75.8 | 87.5 | 75.6 | 96.1 | 83.4 | 96.4
3 | Cc1ccc(Nc2nccc(N(C)c3ccc4c(C)n(C)nc4c3)n2)cc1S(N)(=O)=O [Pazopanib] + O=C(CCCCCCC(=O)Nc1ccccc1)NO [vorinostat] (first compound 0.4 µM, partner dose 0.08 µM) | 73.8 | 44.4 | 85.3 | 67.9 | 47.6 | 138 | 83 | 97 | 104 | 98
4 | CC[C@]1(O)C[C@H]2CN(CCc3c([nH]c4ccccc34)[C@@](C(=O)OC)(c3cc4c(cc3OC)N(C=O)[C@H]3[C@@](O)(C(=O)OC)[C@H](OC(C)=O)[C@]5(CC)C=CCN6CC[C@]43[C@@H]65)C2)C1 [vincristine] + COc1cc(Nc2ncc(F)c(Nc3ccc4c(n3)NC(=O)C(C)(C)O4)n2)cc(OC)c1OC [Tamatinib] (first compound 0.0001 µM, partner dose 0.4 µM) | 202 | 132 | 803 | 237 | 49.5 | 593 | 142 | 98.5 | 152 | 131
5 | Cc1cc(Nc2cc(N3CCN(C)CC3)nc(Sc3ccc(NC(=O)C4CC4)cc3)n2)n[nH]1 [Tozasertib] + CN(NC(=O)CC(=O)NN(C)C(=S)c1ccccc1)C(=S)c1ccccc1 [STA4783] (first compound 0.006 µM, partner dose 0.006 µM) | 218 | 159 | 175 | 7180 | 194 | 1410 | 78.4 | 517 | 217 | 201
6 | O=C(Nc1cc(C(F)(F)F)cc(C(F)(F)F)c1)c1cc(Cl)ccc1O + NCC(=O)Nc1ccc(-n2nc(C(F)(F)F)cc2-c2ccc3c(ccc4ccccc43)c2)cc1 [OSU03012] (first compound 0.016 µM, partner dose 1 µM) | 195 | 93.9 | 118 | 6030 | 91.7 | 230 | 188 | 80.9 | 128 | 73.7
7 | O=C(/C=C/c1cccnc1)NCCCCC1CCN(C(=O)c2ccccc2)CC1 + COc1cc(Nc2ncc(F)c(Nc3ccc4c(n3)NC(=O)C(C)(C)O4)n2)cc(OC)c1OC [Tamatinib] (first compound 0.01 µM, partner dose 0.4 µM) | 25.8 | 263 | 166 | 84.8 | 109 | 1970 | 128 | 93.2 | 168 | 310
8 | Cc1cc(Nc2cc(N3CCN(C)CC3)nc(Sc3ccc(NC(=O)C4CC4)cc3)n2)n[nH]1 [Tozasertib] + NC(=O)Nc1cc(-c2cccc(F)c2)sc1C(=O)N[C@H]1CCCNC1 [AZD7762] (first compound 0.006 µM, partner dose 0.02 µM) | 83.2 | 94.2 | 38.3 | 548 | 230 | 107 | 91 | 86 | 168 | 91.8
9 | O=C(Nc1cc(C(F)(F)F)cc(C(F)(F)F)c1)c1cc(Cl)ccc1O + CC1(C)NC(=O)N(c2ccc([N+](=O)[O-])c(C(F)(F)F)c2)C1=O [nilutamide] (first compound 0.016 µM, partner dose 1 µM) | 89.2 | 76.5 | 28.5 | 53.3 | 42.2 | 211 | 92.9 | 73.5 | 98.9 | 126
10 | Cc1ccc(Nc2nccc(N(C)c3ccc4c(C)n(C)nc4c3)n2)cc1S(N)(=O)=O [Pazopanib] + CC1(C)NC(=O)N(c2ccc([N+](=O)[O-])c(C(F)(F)F)c2)C1=O [nilutamide] (first compound 0.4 µM, partner dose 1 µM) | 75.4 | 80.5 | 77 | 86.4 | 35 | 181 | 88.8 | 93 | 179 | 109
11 | Cc1cn(-c2cc(NC(=O)c3ccc(C)c(Nc4nccc(-c5cccnc5)n4)c3)cc(C(F)(F)F)c2)cn1 [nilotinib] + Cn1cncc1[C@@](N)(c1ccc(Cl)cc1)c1ccc2c(c1)c(-c1cccc(Cl)c1)cc(=O)n2C [tipifarnib] (first compound 0.2 µM, partner dose 0.01 µM) | 112 | 39.7 | 154 | 332 | 86.4 | 159 | 85.2 | 75.2 | 184 | 88.2
12 | CCCCCCCCCCCCCCCCCCOP(=O)([O-])OC1CC[N+](C)(C)CC1 [Perifosine] + CN(C)S(=O)(=O)c1ccc2c(c1)/C(=C/c1cc3c([nH]1)CCCC3)C(=O)N2 [SU6656] (first compound 0.4 µM, partner dose 0.4 µM) | 88.2 | 47.8 | 83.6 | 119 | 85.1 | 128 | 116 | 90.7 | 91.2 | 104
13 | Cc1cc(Nc2cc(N3CCN(C)CC3)nc(Sc3ccc(NC(=O)C4CC4)cc3)n2)n[nH]1 [Tozasertib] + CC(C)(C)c1cnc(CSc2cnc(NC(=O)C3CCNCC3)s2)o1 [SNS-032] (first compound 0.006 µM, partner dose 0.01 µM) | 81.9 | 140 | 119 | 74.3 | 87.8 | 99.8 | 143 | 71 | 54.3 | 190
14 | Cc1ccc(Nc2nccc(N(C)c3ccc4c(C)n(C)nc4c3)n2)cc1S(N)(=O)=O [Pazopanib] + CN(C)S(=O)(=O)c1ccc2c(c1)/C(=C/c1cc3c([nH]1)CCCC3)C(=O)N2 [SU6656] (first compound 0.4 µM, partner dose 0.4 µM) | 120 | 51.7 | 55.8 | 46.5 | 95.4 | 411 | 125 | 119 | 171 | 178
15 | CC[C@]1(O)C[C@H]2CN(CCc3c([nH]c4ccccc34)[C@@](C(=O)OC)(c3cc4c(cc3OC)N(C=O)[C@H]3[C@@](O)(C(=O)OC)[C@H](OC(C)=O)[C@]5(CC)C=CCN6CC[C@]43[C@@H]65)C2)C1 [vincristine] + CN(NC(=O)CC(=O)NN(C)C(=S)c1ccccc1)C(=S)c1ccccc1 [STA4783] (first compound 0.0001 µM, partner dose 0.006 µM) | 261 | 147 | 3550 | 1060 | 745 | 2750 | 69.5 | 482 | 301 | 242
16 | CC[C@]1(O)C[C@H]2CN(CCc3c([nH]c4ccccc34)[C@@](C(=O)OC)(c3cc4c(cc3OC)N(C=O)[C@H]3[C@@](O)(C(=O)OC)[C@H](OC(C)=O)[C@]5(CC)C=CCN6CC[C@]43[C@@H]65)C2)C1 [vincristine] + C=CCn1c(=O)c2cnc(Nc3ccc(N4CCN(C)CC4)cc3)nc2n1-c1cccc(C(C)(C)O)n1 [MK1775] (first compound 0.0001 µM, partner dose 0.02 µM) | 96.5 | 305 | 292 | 247 | 201 | 233 | 190 | 127 | 145 | 129
17 | Cc1ccc(Nc2nccc(N(C)c3ccc4c(C)n(C)nc4c3)n2)cc1S(N)(=O)=O [Pazopanib] + Cn1cncc1[C@@](N)(c1ccc(Cl)cc1)c1ccc2c(c1)c(-c1cccc(Cl)c1)cc(=O)n2C [tipifarnib] (first compound 0.4 µM, partner dose 0.01 µM) | 96.9 | 25.4 | 130 | 213 | 79.6 | 103 | 106 | 96 | 148 | 84.6
18 | CC[C@]1(O)C[C@H]2CN(CCc3c([nH]c4ccccc34)[C@@](C(=O)OC)(c3cc4c(cc3OC)N(C=O)[C@H]3[C@@](O)(C(=O)OC)[C@H](OC(C)=O)[C@]5(CC)C=CCN6CC[C@]43[C@@H]65)C2)C1 [vincristine] + COc1cc2c(Oc3ccc4[nH]c(C)cc4c3F)ncnc2cc1OCCCN1CCCC1 [cediranib] (first compound 0.0001 µM, partner dose 0.4 µM) | 40.9 | 49.2 | 130 | 163 | 95.4 | 57.5 | 159 | 69.5 | 116 | 101
19 | O=C(Nc1cc(C(F)(F)F)cc(C(F)(F)F)c1)c1cc(Cl)ccc1O + COc1cc(Nc2ncc(F)c(Nc3ccc4c(n3)NC(=O)C(C)(C)O4)n2)cc(OC)c1OC [Tamatinib] (first compound 0.016 µM, partner dose 0.4 µM) | 104 | 99.7 | 155 | 183 | 129 | 432 | 179 | 90.1 | 37.7 | 86.2
20 | CC[C@]1(O)C[C@H]2CN(CCc3c([nH]c4ccccc34)[C@@](C(=O)OC)(c3cc4c(cc3OC)N(C=O)[C@H]3[C@@](O)(C(=O)OC)[C@H](OC(C)=O)[C@]5(CC)C=CCN6CC[C@]43[C@@H]65)C2)C1 [vincristine] + NCC(=O)Nc1ccc(-n2nc(C(F)(F)F)cc2-c2ccc3c(ccc4ccccc43)c2)cc1 [OSU03012] (first compound 0.0001 µM, partner dose 1 µM) | 618 | 56.7 | 95.2 | 8720 | 116 | 67.4 | 59.4 | 67.7 | 173 | 93.5

An excerpt of these results, as a markdown table:

| Row | SMILES | cleaved PARP positive nuclei fraction (501Mel) [%] | cleaved PARP positive nuclei fraction (A101D) [%] | cleaved PARP positive nuclei fraction (A2058) [%] | cleaved PARP positive nuclei fraction (A375) [%] | cleaved PARP positive nuclei fraction (C32) [%] | cleaved PARP positive nuclei fraction (CBRC008) [%] | cleaved PARP positive nuclei fraction (CBRC013) [%] | cleaved PARP positive nuclei fraction (CBRC014) [%] | cleaved PARP positive nuclei fraction (CBRC016) [%] | cleaved PARP positive nuclei fraction (CBRC017) [%] |
| --- | --- | --- | --- | --- | --- | --- | --- | --- | --- | --- | --- |
| 3 | Cc1ccc(Nc2nccc(N(C)c3ccc4c(C)n(C)nc4c3)n2)cc1S(N)(=O)=O [Pazopanib] + O=C(CCCCCCC(=O)Nc1ccccc1)NO [vorinostat] (first compound 0.4 µM, partner dose 0.08 µM) | 73.8 | 44.4 | 85.3 | 67.9 | 47.6 | 138 | 83 | 97 | 104 | 98 |
| 19 | O=C(Nc1cc(C(F)(F)F)cc(C(F)(F)F)c1)c1cc(Cl)ccc1O + COc1cc(Nc2ncc(F)c(Nc3ccc4c(n3)NC(=O)C(C)(C)O4)n2)cc(OC)c1OC [Tamatinib] (first compound 0.016 µM, partner dose 0.4 µM) | 104 | 99.7 | 155 | 183 | 129 | 432 | 179 | 90.1 | 37.7 | 86.2 |

Source: the supplement of paper PMC4604168 (melanoma cell lines)
